Assay results: PubChem BioAssay AID2685 (National Center for Advancing Translational Sciences (NCATS), 2010)
The list shows a part of the results. The main result of the screen is listed elsewhere. These columns were measured beside it and carry no call. The list favours compounds with an active or inconclusive main result. Potencies come from curve fits of mixed quality, noted in brackets.

Experiment: qHTS Assay for Lipid Storage Modulators in Drosophila S3 Cells;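 for cell number change: cells counted by Cell Tracker Red CMTPX staining in the red channel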
Conditions: BODIPY lipid droplet fluorescence, 18-24 h; for cell number change: measured here: cell count max response, cells fed with added oleic acid
Outline: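 Drosophila S3 cells loaded with oleic acid (400 uM, as added) and compounds at several concentrations; lipid droplets imaged by 488-nm laser-scanning cytometry, 500–530 nm intensity and object ratio to cell channel. Percent activity normalized to 20 uM Triacsin C.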

[1] = measured here: lipid fluorescence (Fed channel) AC50, cells fed with added oleic acid
[2] = measured here: cell number channel AC50, cells fed with added oleic acid

COc1ccc(C(=O)n2nc(C)cc2Nc2ccccc2)cc1
cell number change: 38.7%

COc1cc(CCC(=O)OCC(=O)Nc2c(F)cccc2F)cc(OC)c1OC
cell number change: 2.94% | AC50 [1]: 5.17 nM [falling, full curve, poor fit]

CCCCN(C)CCCNC(=O)c1cc(Nc2ccc(OC)c(OC)c2)nc2ccccc12
cell number change: 18.3% | AC50 [2]: 51.7 nM [rising, full curve, poor fit]

Cc1cc(=S)c2ccccc2[nH]1
cell number change: 17% | AC50 [1]: 4110 nM [rising, full curve]

Cn1c(-c2ccc(C=O)s2)nc2ccccc21
cell number change: -14.7% | AC50 [2]: 116 nM [falling, full curve] | AC50 [1]: 651 nM [falling, full curve]

COc1ccc(NC(=S)NC(=O)/C=C/c2ccc(F)cc2)cc1
AC50 [2]: 6510 nM [rising, single point]

CC1=CSC2=NC(=O)/C(=C\c3cccn3-c3ccc([N+](=O)[O-])cc3)C(=N)N12
cell number change: -48.6% | AC50 [2]: 18400 nM [falling, partial curve, poor fit] | AC50 [1]: 6510 nM [falling, partial curve, poor fit]

C=CCNC(=O)Nc1ccc(OCC)cc1
AC50 [1]: 41.1 nM [falling, partial curve, poor fit]

CCn1c(C(O)c2cc(OC)c(OC)c(OC)c2)nc2ccccc21 (stereo not drawn)
cell number change: -12.6% | AC50 [1]: 14600 nM [falling, partial curve, poor fit]

COc1ccc(Cl)cc1NC(=O)CCn1cnc2ccccc2c1=O
cell number change: -12.7% | AC50 [1]: 1300 nM [rising, full curve, poor fit]

ClC1(Cl)CC1CSc1ncn[nH]1 (stereo not drawn)
AC50 [1]: 2310 nM [falling, partial curve]

Cc1nc(N2CCCCC2)sc1C(=O)c1ccc(Cl)c([N+](=O)[O-])c1
AC50 [1]: 6510 nM [falling, partial curve, poor fit]

CCCNC(=S)Nc1ccc(Nc2ccccc2)cc1
cell number change: -38.4% | AC50 [2]: 23100 nM [falling, single point] | AC50 [1]: 29100 nM [falling, single point]

CC1=C(C(=O)OC(C)C)C(c2ccc(C)o2)C(C(=O)OC(C)C)=C(C)N1
cell number change: 9.71%

CC(=O)N1CCc2c(sc(NC(=O)C3CCCN3S(=O)(=O)c3cccs3)c2C(N)=O)C1 (stereo not drawn)
AC50 [2]: 580 nM [rising, full curve]

COc1cccc(NC(=O)CN(C)C(=O)/C=C/c2cc(OC)ccc2OC)c1
cell number change: 22.7% | AC50 [1]: 206 nM [rising, full curve, poor fit]

CCc1ccc(C(=O)Nc2cc(C)on2)o1
cell number change: -3.48% | AC50 [1]: 580 nM [rising, single point]

CNC1=CC(=O)CC(c2ccccc2)C1 (stereo not drawn)
cell number change: -6.87% | AC50 [1]: 2060 nM [falling, full curve]

Cc1nc(-c2cccc(S(=O)(=O)N3CCC(C)CC3)c2)cs1
cell number change: -23.2%

Cc1ccc(OCCn2c(NC(=O)c3ccco3)nc3ccccc32)cc1
cell number change: -11.1% | AC50 [1]: 1840 nM [rising, partial curve]

Cc1ccnc2nc(C(=O)N3CCN(c4ccc(F)cc4)CC3)nn12
cell number change: 7.59% | AC50 [1]: 16400 nM [rising, single point]

COc1ccccc1N1CCN(Cc2ccc(Br)o2)CC1
AC50 [2]: 130 nM [falling, full curve, poor fit]

COc1ccccc1/C=N/NC(=O)c1cccc(NC(=O)c2ccccc2C)c1
cell number change: -11.7% | AC50 [1]: 4.61 nM [rising, full curve, poor fit]

COC(=O)c1ccc(Nc2ccc3nonc3c2[N+](=O)[O-])cc1
cell number change: 2.64% | AC50 [1]: 920 nM [rising, full curve, poor fit]

CCC(C)n1[nH]c(=O)c2c(C)cc(C)nc21 (stereo not drawn)
cell number change: -80.1% | AC50 [2]: 18400 nM [falling, single point]

CCOC(=O)c1c(C)n(C)c2ccc(OCC(O)CN(CC)CC)cc12 (stereo not drawn)
cell number change: 7.37% | AC50 [1]: 164 nM [rising, full curve, poor fit]

CCN(C(=O)COC(=O)CCC1CCCC1)c1c(N)n(Cc2ccccc2)c(=O)[nH]c1=O
cell number change: 1.15% | AC50 [1]: 366 nM [falling, single point]

C/C(=N\N=C1\NC(=O)CC(C(=O)O)S1)c1cccs1 (stereo not drawn)
cell number change: 3.16%

Cc1cccc(CSC2=NCCN2S(=O)(=O)c2ccc(F)cc2)c1
AC50 [1]: 29100 nM [falling, single point]

CCOC(=O)c1ccc(S(=O)(=O)N2CCC(C(=O)Nc3nnc(C)o3)CC2)cc1
cell number change: 4.02%

CC1C(C#N)=C(SCC(N)=O)NC2=C1C(=O)CC(C)(C)C2 (stereo not drawn)
cell number change: -27.7% | AC50 [1]: 13000 nM [falling, partial curve, poor fit]

C=CCSc1nnc(-c2sc(-c3ccccc3)nc2C)n1C
cell number change: 103% | AC50 [2]: 1840 nM [rising, partial curve] | AC50 [1]: 5170 nM [rising, partial curve]

CCOc1ccc2cc(C#N)c(SCC(=O)NC(C)CC)nc2c1 (stereo not drawn)
cell number change: -4.46% | AC50 [2]: 6510 nM [rising, single point]

COc1ccc(NC(=O)CSc2c3c(nc4ccccc24)CCC3)c(OC)c1
cell number change: 10.5% | AC50 [2]: 4610 nM [falling, single point] | AC50 [1]: 580 nM [falling, partial curve]

COc1ccc(C2(C(=O)NC3CCCCC3)CCOCC2)cc1OC
AC50 [1]: 4110 nM [falling, partial curve]

C[C@H](NC(=O)c1ccco1)C(=O)Nc1cccc([N+](=O)[O-])c1
cell number change: -51.5% | AC50 [2]: 14600 nM [falling, partial curve, poor fit]

CCN(CC)Cc1c(CC(C)C)oc(C)c1C(=O)O
cell number change: 11.9% | AC50 [1]: 146 nM [falling, full curve, poor fit]

CC(C)CN1CCC(=O)N([C@H](CO)Cc2ccccc2)CC1
cell number change: 36.6% | AC50 [2]: 29100 nM [rising, single point]

NC1=NC(=O)C2(COC(c3cccnc3)OC2)S1 (stereo not drawn)
cell number change: -24.9% | AC50 [2]: 2910 nM [falling, full curve, poor fit] | AC50 [1]: 6510 nM [falling, single point]

Cn1cnc([N+](=O)[O-])c1SCC(O)CN1CCCCC1 (stereo not drawn)
cell number change: 61.4% | AC50 [2]: 29100 nM [rising, single point]
